Data reported in PubChem BioAssay AID493014 (National Center for Advancing Translational Sciences (NCATS), 2011).
Some of the results follow. These are further read-outs of the screen, such as a control signal, another cell line or another target. No call is given for them. The list favours compounds with an active or inconclusive main result. Potencies come from curve fits of mixed quality, noted in brackets.

Test: qHTS Assay to Find Inhibitors of Chronic Active B-Cell Receptor Signaling
Conditions: ABC-DLBCL IkBa-CBG/CBR reporter, luminescence ratio (green luciferase fused to IkBa over red control in TMD8 lymphoma cells), 4 h
Procedure, shortened: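 Concentration-response series (up to 46 uM) were applied to TMD8 dual-reporter cells for 4 h at 37C with doxycycline. Green/red ratio, after filter-overlap correction, defined %Activity; red signal alone was normalised to basal cells and zero luminescence.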

[1] = measured here: CBR red luminescence, cell number
[2] = measured here: IkBa-CBG green luminescence

Row | SMILES | AC50 [1] | AC50 [2]
1 | CC1CCN(C(=O)Cn2cnc3c(cnn3C(C)(C)C)c2=O)CC1 | 1 µM [rising, full curve, poor fit] | –
2 | N#CC1=C(N)Oc2n[nH]c(CSc3ccccc3)c2C12C(=O)Nc1ccccc12 (stereo not drawn) | 29.1 µM [falling, single point] | –
3 | N#C/C(=C/c1ccc(Br)o1)C(N)=S | 8.91 µM [falling, partial curve, poor fit] | –
4 | Cc1ccsc1/C=N/NC(=O)c1cc(-c2ccncc2)nc2ccccc12 | 5.17 µM [rising, full curve] | 7.31 µM [falling, partial curve]
5 | Cc1ccc(NC(=O)c2cccc(C(=O)Nc3ccc(C)cc3C(=O)O)c2)c(C(=O)O)c1 | 6.31 µM [falling, full curve, poor fit] | –
6 | CC(CCC(=O)O)C1CC[C@@]2(C)C3C(=O)CC4C(C)(C)C(O)CC[C@]4(C)C3C(=O)C[C@]12C (stereo partly drawn) | 6.31 µM [rising, partial curve, poor fit] | –
7 | O=S(=O)(NCc1cn2ccsc2n1)c1ccc2c(c1)OCCO2 | 29.1 µM [falling, single point] | –
8 | COc1ccc(S(=O)(=O)N2CCC(C(=O)N3CCCC3)CC2)cc1 | 17.8 µM [rising, partial curve, poor fit] | –
9 | COc1ccc(NC(=O)c2ccc(NCCN3C(=O)CCC3=O)c([N+](=O)[O-])c2)cc1 | 12.6 µM [falling, partial curve, poor fit] | –
10 | C/C(=N\Nc1nc2ccccc2[nH]1)c1ccc(C)o1 | 13 µM [falling, partial curve] | –
11 | COC(=O)CSc1nnc(CNC(=O)Cc2ccccc2)n1-c1ccccc1OC | 35.5 µM [falling, single point] | –
12 | Cc1cnc(NC(=O)C2CC(=O)N(c3cccc(Cl)c3)C2)s1 (stereo not drawn) | 2.82 µM [rising, full curve, poor fit] | –
13 | CCOc1ccccc1Nc1nc2ccc(C)cc2n2cnnc12 | 10 µM [rising, partial curve, poor fit] | –
14 | COc1cc(OC)c(OC)cc1/C=C1\CC(C)C/C(=C\c2cc(OC)c(OC)cc2OC)C1=O (stereo not drawn) | 20 µM [falling, partial curve] | –
15 | COc1ccc(CCNC(=O)C2CC(c3ccc([N+](=O)[O-])cc3)=NO2)cc1 (stereo not drawn) | 1.26 µM [falling, full curve, poor fit] | –
16 | CN1CCN(CCCN2c3ccccc3Sc3ccc(C(F)(F)F)cc32)CC1 | 12.6 µM [falling, single point] | –
17 | CCOC(=O)c1ccc(Oc2cn[nH]c2-c2ccc(OCC(=O)NN)cc2O)cc1 | 14.1 µM [falling, single point] | –
18 | CCOC(=O)c1c(-n2cnnn2)sc(C)c1C | 35.5 µM [rising, single point] | –
19 | CCOC(=O)/C=c1\s/c(=C\c2ccc(C(=O)OC)cc2)c(=O)n1CC(=O)Nc1ccccc1 | 6.31 µM [rising, single point] | –
20 | CC(=O)N1CCc2cc(S(=O)(=O)NCCC(=O)NCCc3ccccc3)ccc21 | 3.26 µM [rising, partial curve, poor fit] | –

Row | SMILES | AC50 [1] | AC50 [2]
21 | O=C(Nc1ccc(C(F)(F)F)cc1)c1cc(S(=O)(=O)NCC2COc3ccccc3O2)ccc1F (stereo not drawn) | 16.4 µM [falling, partial curve, poor fit] | –
22 | CCC(C)[C@H](NC(=O)[C@@H]1Cc2c([nH]c3ccccc23)C2c3ccccc3C(=O)N21)C(=O)N1CCC[C@@H]1C(=O)O (stereo partly drawn) | 11.2 µM [falling, partial curve, poor fit] | –
23 | CC1CCCN(C(=O)c2ccc(NC(=O)CC3SC(N4CCCC4)=NC3=O)cc2)C1 (stereo not drawn) | 5.8 µM [rising, full curve] | –
24 | CC(C)N(C(=O)CSc1nc2ccccc2n1Cc1ccccc1F)C(C)C | – | 18.4 µM [rising, single point]
25 | CCOC(=O)c1sc(SC)c(C(C)=O)c1C | 23.1 µM [falling, single point] | –
26 | O=C(OCCCc1cc2ccccc2c(=O)o1)c1ccco1 | 3.26 µM [rising, partial curve, poor fit] | –
27 | O=C(Nc1ccc(-n2cc(Br)cn2)cc1)c1ccncc1 | 0.251 µM [rising, full curve, poor fit] | –
28 | CC(C)c1ccc(-c2csc3nc[nH]c(=O)c23)cc1 | 1.41 µM [rising, full curve, poor fit] | –
29 | Cc1ncc(C(=O)O)c(C(=O)O)c1N | 3.16 µM [falling, partial curve, poor fit] | –
30 | O=C(N/N=C/c1ccc(-c2ccccc2)o1)c1ccccc1O | 3.98 µM [falling, full curve] | –
31 | Cc1sc(N/N=C/c2cccs2)nc1-c1ccccc1 | 25.9 µM [falling, single point] | –
32 | O=c1c(-c2n[nH]c(=S)o2)cccn1Cc1ccccc1 | 12.6 µM [falling, partial curve, poor fit] | –
33 | Nc1ccc2nc(SCc3ccccc3F)sc2c1 | 2.82 µM [rising, partial curve, poor fit] | –
34 | Cc1cc(C)[n+]2[nH]c(N)c(N=Nc3ccccc3)c2n1 | 20 µM [falling, single point] | –
35 | CSc1ccccc1OCc1cc(C(=O)N2CCc3[nH]cnc3C2c2ccccn2)no1 (stereo not drawn) | 11.2 µM [falling, partial curve] | –
36 | CCN(CC)c1ccc(C=Nc2cc(C)cc(C)c2)c(O)c1 | 29.1 µM [falling, partial curve, poor fit] | –
37 | Cc1cccc2c1NC(=O)/C2=C\C(=O)c1cccs1 | 29.1 µM [falling, single point] | 29.1 µM [rising, single point]
38 | COc1ccc(C(=O)Nc2cc3c(cc2C#N)OCO3)cc1S(=O)(=O)NCc1ccco1 | 22.4 µM [falling, single point] | –
39 | Cc1ccc(NC(=O)CCCc2nc3ccccc3c(=O)[nH]2)c(Cl)c1 | 13 µM [rising, partial curve, poor fit] | –
40 | COc1cc(C=O)ccc1OC(=O)c1ccc(C(C)C)cc1 | 31.6 µM [rising, single point] | 17.8 µM [falling, partial curve, poor fit]

Three compounds from above, arranged by length of the SMILES, low to high:
Row | SMILES | AC50 [1] | AC50 [2]
17 | CCOC(=O)c1ccc(Oc2cn[nH]c2-c2ccc(OCC(=O)NN)cc2O)cc1 | 14.1 µM [falling, single point] | –
21 | O=C(Nc1ccc(C(F)(F)F)cc1)c1cc(S(=O)(=O)NCC2COc3ccccc3O2)ccc1F (stereo not drawn) | 16.4 µM [falling, partial curve, poor fit] | –
19 | CCOC(=O)/C=c1\s/c(=C\c2ccc(C(=O)OC)cc2)c(=O)n1CC(=O)Nc1ccccc1 | 6.31 µM [rising, single point] | –
